Measured data: PubChem BioAssay AID686943 (Drosophila RNAi Screening Center, 2013)

Test: 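Search across the genome for regulators of signalling from receptor tyrosine kinase to ERK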 (primary screen)
Cells: Drosophila S2R+ haemocyte-like cells expressing YFP-tagged ERK (Rolled)
Reagents: long dsRNA against Drosophila genes
Treatment: insulin stimulation versus unstimulated cells; dose and duration not given
Measurement: 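Per-plate z-scores of phospho-ERK immunostaining normalised to YFP-tagged ERK, measured with and without insulin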
Direction: replicate 1, z-score of dpERK with insulin and replicate 2, z-score of dpERK with insulin: higher = more active ERK per ERK-YFP after insulin
The deposit covers about 23,000 reagents; below is an unselected part of those with a known target gene and a result. 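Extra replicates exist only for a retested subset of genes; insulin dose and duration not given; both raised and lowered dpERK matter.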 Further read-outs or replicates are left out here. No sequences are given here. The record does not give: the amount of reagent, the time to read-out.

Knock-down of Nach [SID104187270] came out at: replicate 1, z-score of dpERK with insulin -0.1; replicate 2, z-score of dpERK with insulin -0.12.
With knock-down of CG7506 [SID104190652], the record shows replicate 1, z-score of dpERK with insulin 0.7; replicate 2, z-score of dpERK with insulin 0.37.
Silencing of Gr93d (Gustatory receptor 93d) [SID104201557] resulted in: replicate 1, z-score of dpERK with insulin 0.03; replicate 2, z-score of dpERK with insulin -1.5.
With knock-down of AttD (Attacin-D) [SID104196064], the screen gave replicate 1, z-score of dpERK with insulin 0.75; replicate 2, z-score of dpERK with insulin -0.41.
For subdued [SID104194929], the values are replicate 1, z-score of dpERK with insulin 0.42; replicate 2, z-score of dpERK with insulin -0.07.
Knock-down of Nlp (Nucleoplasmin) [SID104196551] came out at: replicate 1, z-score of dpERK with insulin -0.06; replicate 2, z-score of dpERK with insulin 0.24.

Laid out differently: results already given
Gene	PubChem SID	replicate 1, z-score of dpERK with insulin	replicate 2, z-score of dpERK with insulin
Gr93d (Gustatory receptor 93d)	SID104201557	0.03	-1.5
AttD (Attacin-D)	SID104196064	0.75	-0.41

The results go on.
With knock-down of Mur2B (Mucin related 2B) [SID104198337], the screen gave replicate 1, z-score of dpERK with insulin 0.82; replicate 2, z-score of dpERK with insulin -1.78.
Mur2B (Mucin related 2B) [SID104198338] scored replicate 1, z-score of dpERK with insulin 0.07; replicate 2, z-score of dpERK with insulin -1.02.
Muc26B (Mucin 26B) [SID104182114] gave replicate 1, z-score of dpERK with insulin -0.14; replicate 2, z-score of dpERK with insulin 0.55.
Against CG6418 [SID104190425], the entry reads replicate 1, z-score of dpERK with insulin -0.73; replicate 2, z-score of dpERK with insulin -0.27.
After knock-down of Galphaf (G protein alpha subunit f) [SID104190963], the screen gave replicate 1, z-score of dpERK with insulin -0.07; replicate 2, z-score of dpERK with insulin -0.9.
After knock-down of Obp44a (Odorant-binding protein 44a) [SID104186630], the record shows replicate 1, z-score of dpERK with insulin 0.14; replicate 2, z-score of dpERK with insulin -0.04.
